Experimental data taken from PubChem BioAssay AID493014 (National Center for Advancing Translational Sciences (NCATS), 2011).
The list shows a part of the results. The main result of the screen is listed elsewhere. These columns were measured beside it and carry no call. The list favours compounds with an active or inconclusive main result. Potencies come from curve fits of mixed quality, noted in brackets.

Assay: qHTS Assay to Find Inhibitors of Chronic Active B-Cell Receptor Signaling
Settings: ABC-DLBCL IkBa-CBG/CBR reporter, luminescence ratio (green luciferase fused to IkBa over red control in TMD8 lymphoma cells), 4 h
Outline: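 Doxycycline induced both beetle luciferases in TMD8 lymphoma cells; IKK-driven degradation limits the IkappaBalpha-fused green signal, while red luminescence normalises for cell number and nonspecific effects. Compounds tested up to 46 uM, 4 hrs.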

[1] = measured here: CBR red luminescence, cell number
[2] = measured here: IkBa-CBG green luminescence

Structure (SMILES)	AC50 [1]	AC50 [2]
Cc1onc(-c2ccccc2)c1C(=O)NC(=S)Nc1sc2c(c1C#N)CCCC2	2.31 µM [rising, full curve]	–
CCCc1ccc(OCCNC(=O)CC)cc1	4.61 µM [rising, full curve, poor fit]	–
CS(=O)(=O)c1ccc(Sc2nc3ccccc3s2)c([N+](=O)[O-])c1	2.59 µM [falling, full curve]	–
COc1ccccc1N=NC1C(=O)N(C(N)=S)N=C1C (configuration not stated)	–	20 µM [falling, single point]
CCN(CC)CCCNC(=O)CSc1nc2c(c(C(F)(F)F)n1)CCc1ccccc1-2	35.5 µM [falling, single point]	–
C#CCOc1ccccc1CNc1ccccc1	16.4 µM [rising, single point]	–
COc1ccc(N2CCN(C(c3nnnn3CCc3ccccc3)C(C)C)CC2)cc1 (configuration not stated)	5.62 µM [falling, single point]	–
S=C(Nc1ccccc1)N1N=C(c2cccs2)CC1c1cccs1 (configuration not stated)	15.8 µM [falling, single point]	–
C/C(=N\N=C1\NC(=O)C(Cc2ccccc2)S1)c1ccccc1 (configuration not stated)	3.16 µM [rising, partial curve]	–
COC(=O)/C=C\C(=O)Nc1cccc([N+](=O)[O-])c1	29.1 µM [falling, single point]	23.1 µM [rising, partial curve, poor fit]
CCc1nc2ccccc2c(C(=O)OCCN2C(=O)c3ccccc3C2=O)c1C	7.08 µM [falling, full curve]	–
Cc1cccc([C@@H]2[C@@H]3C(=O)N(Cc4ccccc4)C(=O)[C@@H]3[C@]3(Cc4ccc(Cl)cc4)C(=O)N(c4cccc(Br)c4)C(=O)N23)c1	0.562 µM [falling, partial curve, poor fit]	–
CN(C)CCCn1c(SCC(=O)Nc2nccs2)nnc1-c1ccncc1	8.91 µM [falling, partial curve]	–
Oc1cccc(/C=N/N=C/c2cccc(O)c2O)c1O	5.62 µM [rising, full curve, poor fit]	–
Cc1ccc(-c2nnc(NCc3nc4ccccc4[nH]3)c3ccccc23)cc1S(=O)(=O)N(C)C	20.6 µM [falling, partial curve, poor fit]	–
NC(=O)c1ncn([C@@H]2O[C@H](CO)[C@@H](O)[C@H]2O)n1	32.6 µM [rising, single point]	–
Cc1ccccc1NC(=O)c1cc([N+](=O)[O-])ccc1NCCN1C(=O)CCC1=O	12.6 µM [rising, single point]	–
COc1ccc(-c2nc(C)c(C(C)=O)n2O)cc1	11.2 µM [falling, partial curve]	–
Cc1nnc(NC(=O)CSc2nnc(-c3ccco3)o2)s1	10 µM [falling, partial curve]	–
CCN(C(=O)COc1ccc(N(C)S(=O)(=O)c2ccc(NC(C)=O)cc2)cc1)C1CCCCC1	14.6 µM [falling, single point]	–

Structure (SMILES)	AC50 [1]	AC50 [2]
COc1ccc2ccccc2c1/C=N/Nc1cccc(C(=O)O)c1	0.447 µM [falling, full curve, poor fit]	–
CC(C)(CO)NCc1cccs1	5.62 µM [falling, full curve]	–
O=C(NCCCN1CCc2ccccc2C1)Nc1ccc(Br)cc1	1.84 µM [rising, partial curve, poor fit]	–
CC(C)c1ccc(C2=CC(c3cccc(Cl)c3)n3c(nc4ccccc43)N2)cc1 (configuration not stated)	35.5 µM [falling, single point]	–
C/C(O)=C/c1nc2ccccc2[nH]c1=O	23.1 µM [rising, single point]	–
COc1cccc(CC(=O)OCC(=O)NC2(C#N)CCCC2)c1	–	32.6 µM [falling, partial curve, poor fit]
COc1ccccc1C(=O)N/C(=C\c1ccc2c(c1)OCO2)C(=O)NCCc1nc2ccccc2[nH]1	16.4 µM [falling, partial curve]	–
C/C(N)=C(/C#N)C(=O)CSc1nc2ccccc2c(=O)n1-c1ccc(C)c(Cl)c1	16.4 µM [falling, single point]	–
O=c1c2cc(Cl)ccc2nc(-c2ccccc2)n1O	7.94 µM [falling, partial curve, poor fit]	–
COc1ccc2c(c1)O[C@@H](c1cccc(C(F)(F)F)c1)[C@H](OC(=O)Nc1ccc(OC(F)F)cc1)C2=O	14.6 µM [rising, single point]	–
O=[N+]([O-])c1ccccc1S(=O)(=O)Oc1ccc(C(=S)N2CCOCC2)cc1	4.11 µM [rising, single point]	–
CC(C)N1C/C(=C/c2cccnc2)C(=O)/C(=C/c2cccnc2)C1	20.6 µM [falling, single point]	–
CC(C)(C)SCCNS(=O)(=O)c1ccc2ccccc2c1	11.6 µM [rising, partial curve, poor fit]	–
CCOC(=O)c1csc(NC(=O)C2CCCCC2)n1	14.6 µM [falling, single point]	5.17 µM [rising, full curve, poor fit]
Cc1ccc(S(=O)(=O)N(CC(=O)N/N=C/c2ccco2)c2cc(Cl)cc(Cl)c2)cc1	2.06 µM [falling, partial curve, poor fit]	23.1 µM [rising, partial curve, poor fit]
C[C@H](CO)N1C[C@H](C)[C@@H](CN(C)Cc2ccccc2)Oc2ccc(NC(=O)Cn3cnnn3)cc2C1=O	32.6 µM [rising, partial curve, poor fit]	–
OCCNc1nc(-c2ccccc2)c2ccccc2n1	7.08 µM [rising, partial curve, poor fit]	–
CCc1ccc2[nH]c(=O)c(CN(CCN(CC)CC)C(=S)NCc3ccco3)cc2c1	3.98 µM [falling, partial curve, poor fit]	–
CCCS(=O)(=O)Nc1ccc2cn[nH]c2c1	25.1 µM [falling, single point]	–

Look-ups from the results shown.
Entry of `CN(C)CCCn1c(SCC(=O)Nc2nccs2)nnc1-c1ccncc1` under AC50 [1]: 8.91 µM [falling, partial curve]
Entry of `C/C(=N\N=C1\NC(=O)C(Cc2ccccc2)S1)c1ccccc1` (configuration not stated) under AC50 [1]: 3.16 µM [rising, partial curve]
